This sample is rich in variants without activity.
B1: tRNA (parent)
chain: GUUCCGUUGGCGUAAUGGUAACGCGUCUCCCUCCUAAGGAGAAGACUGCGGGUUCGAGUCCCGUACGGAACG

Variants of: B1
Assay: yeast fitness relative to wild type (ratio to wild type); higher = fitter; tRNA-Arg(CCU), competitive growth, 37 C, YPD
How it was run: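 A pool of Saccharomyces cerevisiae strains, each with a tRNA-Arg(CCU) gene variant at the native genomic locus, was competed in YPD at 37°C for 24 hours across six parallel replicates. The variants had been chemically synthesised at a 3% per-site mutation rate over 69 sites, and gene amplicons before and after competition were read by 100-nucleotide paired-end sequencing. Darwinian fitness relative to wild type rested on changes in genotype frequencies. Genotypes required ≥ 100 starting reads, and estimates < 0.5 were set to 0.5.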

Row | Variant | yeast fitness
1 | GAUCCGUUGGCGUAAUGGUAACGCGUCUCCCUCCUAAGGAGAAGACUGCGGGUACGAGUCCCGUACGCAACG [U2A U54A G68C] | ≤ 0.5
2 | GCUCCGUUGGCGUAAUGGUAUCGCGUCUUCCUCCUAAGAAGAAGACUGCGCGUUCGAGUUCCGUAGGGAACG [U2C A21U C29U G39A G51C C60U C66G] | ≤ 0.5
3 | GCUCCGUUGGCGUAAUGGUAACGCGUCUCCCUCCUAAGGAGCAGACUGCGGGUUCGAGUCCCGUACGGAACG [U2C A42C] | 0.914
4 | GCUACGUUGGUGUAAUGGUAACGCGUCUUCCUCCUAAGGAGAAGACUGCGGGUUCGAGUCCCGUACAGAUCG [U2C C4A C11U C29U G67A A70U] | ≤ 0.5
5 | GCUACGUUGGCGUAAUGGUAACAGGUCUCCCUCCUAAGGAGAAGACUGCGGGUUCGAGUCCCGUACGAAACG [U2C C4A G23A C24G G68A] | ≤ 0.5
6 | GCUGCGUUGGCGUAGUCGUAACGCGUCUCCCUCAUAAGGAGAAGACUGCGGGUUCGAGUCCCGUACGGAACG [U2C C4G A15G G17C C34A] | ≤ 0.5
7 | GCUUCGUUGCCGUAAUGGUAACGCGUCUCCCUCCUAAGGAGAAGACUGCGGGUUCGCGCCCCGUACGGACCG [U2C C4U G10C A57C U59C A70C] | ≤ 0.5
8 | GCUCCGUUGGUGUCAUGGUAACGCGUCUCCCUCGUAAGGCGCAGACUGCGGGUUCGAGUCCCGUACGGAACG [U2C C11U A14C C34G A40C A42C] | ≤ 0.5
9 | GCUCCGUUGGUGUAAUGGUACCGCGCCUCCCUCCUAAGGAGAAGAGUGCGGGUUCGAGUCCCGUACGGAACG [U2C C11U A21C U26C C46G] | ≤ 0.5
10 | GCUCCGUUGGCGUAAUGGUAACGCGUGUCCCUCCUAAGGAGUAGACUGCGGGCUCGAGUCCCGUACGGAACG [U2C C27G A42U U53C] | ≤ 0.5
11 | GCUCCGUUGGCGUAAUGGUAACGCGUUUCCCUCCUAAGGAGAAGACUGCGGGUUCGAGUCCCGUACGGAACG [U2C C27U] | 0.881
12 | GCUCCGUUGGCGUAAUGGUAACGCGUCUACCUCGUAAGGAGAUGACUGCGGAUUCGAGUCCCGUACGGAACG [U2C C29A C34G A43U G52A] | 0.682
13 | GCUCCGUUGGCGUAAUGGUAACGCGUCUCUCUCCUACCGAGAAGACUGCGGGUUCGAGUCCCGUCCGGAACG [U2C C30U A37C G38C A65C] | ≤ 0.5
14 | GCUCCGUUGGCGUAAUGGUAACGCGUCUCCCUCCUAAGGAGAAGAGUGCGGGUUCGAGUCCCAUACGGAUCG [U2C C46G G63A A70U] | ≤ 0.5
15 | GCUCCGUUGACGCAAUGGUAUCGCGUCUCCCUCCUAAGGAGAAGACUGCGGGUUCGAGUCCCGUACGGAACG [U2C G10A U13C A21U] | ≤ 0.5
16 | GCUCCGUUGCCGUAAUGGUAACGCGUCUCCCUCCUAAGGAGAAGACUCCGGGUUCGAGUCCUGUACGCAACG [U2C G10C G48C C62U G68C] | ≤ 0.5
17 | GCUCCGUUGGCGUAAUGGUAACGCGUCUCCCUCCUAAGGACAAGACUGCGGGUUCGAGUCCCGUACGAAACG [U2C G41C G68A] | ≤ 0.5
18 | GCUCCGUUGGCGUAAUGGUAACGCGUCUCCCUCCUAAGGAGAAGACUGCCGGUUCGAGUGCCGUACGGAACG [U2C G50C C60G] | ≤ 0.5
19 | GCACCGUUGGCGUAAUGGUAACGAGUUUCCCUCCUAAGGAGAAGACUGCGGGUUCGAGUCCCGUACGGAACG [U2C U3A C24A C27U] | ≤ 0.5

Row | Variant | yeast fitness
20 | GCGCCGUUGACGUAAUGGUAACGCGUCUCCCUCCUAAGGAGAUGACUGCGGGUUCGAGUCCCGUACGGAACG [U2C U3G G10A A43U] | ≤ 0.5
21 | GCUCCGAUGGCGUAAUGGUAACGCGUCUCCCUCCUAGGGAGUAGACUCCGGGUACGAGUCCCGUACGGAACG [U2C U7A A37G A42U G48C U54A] | ≤ 0.5
22 | GCUCCGCUGGCGUAAUGGCAACGCGUCUCCCUCUUAAGGAGAAGACUGCGGAUUCGAGACCCGUACGGAACG [U2C U7C U19C C34U G52A U59A] | ≤ 0.5
23 | GCUCCGUAGGCGUAAUGGUUACGCGUUUCCCUCCUAAGGAGAAGACUGCGGGUUCGAGUCCCGUCCGGAACG [U2C U8A A20U C27U A65C] | ≤ 0.5
24 | GCUCCGUCGGGGUAAUGGUAACGCGUCUCCCUCCUAAGGAGAAGAAUGCGGGUUCGAGUCCCGUACGGACCG [U2C U8C C11G C46A A70C] | ≤ 0.5
25 | GCUCCGUCGGCGGAAUGGUAACGCGUCUCCCUCCUAUGGAGAAGACUGCGGGUUCGAGUGCCGUACGGACCG [U2C U8C U13G A37U C60G A70C] | ≤ 0.5
26 | GCUCCGUUGGCGUAAUGGCAACGCGUCUCCCUCCUAGGGAGAAGACUGAGGGUUCGAGUCCCGUACGGAACG [U2C U19C A37G C49A] | ≤ 0.5
27 | GGUCCGUUGGCGUAAUGGUAUUGCGUCUCCCUCCUAAGGAGAAGACUGCGGGUUCGAGUCCCGUACGGAACG [U2G A21U C22U] | ≤ 0.5
28 | GGUACGUUGGCGUAAUAGUUACGUGUCUCCCUCCUAAGGAGAAGACUGCGGGUUCGAGUCCCGUACGGAACG [U2G C4A G17A A20U C24U] | ≤ 0.5
29 | GGUCGGUUGGGGUAAUGGUAACGCGACUCCCUCCUAAGGAGAGGACUGCGGGUUCGAGUCCCGUACGGCACG [U2G C5G C11G U26A A43G A69C] | ≤ 0.5
30 | GGUCGGUUGGCGUAAUGGUAACGCGUCUCCCUCGUAAGGAGAAGACUGGGGGUUCGAGUCCCGUACGGAACG [U2G C5G C34G C49G] | 0.505
31 | GGUCUGUUGGCGUAAUGGUAACGCGUCUCCCCCCUAAGGAGAAGACUGCGGGUUUGAGUCCCGUACGGAACG [U2G C5U U32C C55U] | 0.581
32 | GGUCCGUUGGCGUAAUGGUAAGGCGUCUCCCUCCUAAGGACAAGACUGCGGGUUCGAGUCCCGUACGGAACG [U2G C22G G41C] | ≤ 0.5
33 | GGUCCGUUGGCGUAAUGGUAACGCGUCUCCUUCCUAAGGAGAAGACUGCGGGUGCGAGUCCCGUACGGAACG [U2G C31U U54G] | ≤ 0.5
34 | GGUCCGUUGGCGUAAUGGUAACGCGUCUCCCUACUAAGGAGAAGACUGGGGGUUCGAGUCCCGUACCGAACG [U2G C33A C49G G67C] | ≤ 0.5
35 | GGUCCAUUGGCGUAAUGGUAACGCGUCUUCCUCCUAAGGAGAAGACUGCGGGUUCGAGUCCCGUACGGAACG [U2G G6A C29U] | ≤ 0.5
36 | GGUCCAUUGGCGUAAUGGUAACACGUCUGCCUCCUAAGGAGAAGACUGCGGGUUCGAGUCCCGUACGGAACG [U2G G6A G23A C29G] | ≤ 0.5
37 | GGUCCGUUGGCGUAAUGCUAACGCGUCUCGCUCAUACGGAGAAGACUGCGGGUUCGAGUCCCGUUCGGAACG [U2G G18C C30G C34A A37C A65U] | ≤ 0.5
38 | GGUCCGUAGGCGUAAUGGUAACACGUCUCCCCCCUAAGGAGAAGGCUGCGGGUUCGAGUUCCGUAGGGAACG [U2G U8A G23A U32C A45G C60U C66G] | ≤ 0.5
